From patent US20060063702A1, “Neuromedin U 2 receptor agonists and uses thereof” (priority 2004, published 2006)
At least one compound was matched to its structure with a doubt left.

Amino acid sequences for entries named in this document (tags omitted). A change or cut given only in a name is not applied to a line headed by its entry.
UniProt Q9GZQ4: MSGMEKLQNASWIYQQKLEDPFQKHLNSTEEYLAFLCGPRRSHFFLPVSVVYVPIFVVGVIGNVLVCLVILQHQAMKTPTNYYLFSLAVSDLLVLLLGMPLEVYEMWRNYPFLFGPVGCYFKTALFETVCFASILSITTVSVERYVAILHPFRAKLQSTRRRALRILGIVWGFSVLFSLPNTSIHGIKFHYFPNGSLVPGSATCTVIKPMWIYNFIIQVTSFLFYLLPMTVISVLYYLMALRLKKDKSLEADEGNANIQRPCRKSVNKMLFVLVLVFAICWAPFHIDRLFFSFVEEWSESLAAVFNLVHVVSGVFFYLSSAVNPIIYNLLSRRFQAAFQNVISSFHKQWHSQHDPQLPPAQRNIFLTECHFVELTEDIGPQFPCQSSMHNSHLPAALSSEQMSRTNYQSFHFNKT

What was measured:
[1] = Glucose infusion rate under insulin infusion in obese rats; format: in vivo, Wistar rats; conditions: obese rats after Rutin treatment, 1.67 mU.kg^−1.min^−1 insulin infusion
[2] = Oral Rutin in C57BL/6 mice: food intake, body weight, fat index; format: in vivo
[3] = Rutin in high fat diet induced obese Wistar rats: blood glucose, insulin, blood fat, body weight; format: in vivo
human NMU-2R = target: T1, human NMU-2R (Homo sapiens, UniProt Q9GZQ4); assay: NMU-2R reporter gene (luciferase) assay in HEK-293/NMU-2R/3MCS/Luci cells; format: cell-based; conditions: in the presence of forskolin 5 μmol/L
T1 construct: expressed in transfected cells
Protocol: Establishment of stable cell line: HEK-293 cells were maintained in DMEM with 10% FBS (Gibco) and 1% non-essential amino acid at 37° C. […] Twenty-four hours after transfection, cell culture medium was replaced with fresh medium containing G418 at final concentration of 800 mg/L. Stable cell line was generated using limited dilution based on the luciferase activity in the presence of NmU and forskolin (5 μmol/L). The stable cell line was named HEK-293/NMU-2R/3MCS/Luci cells. Luciferase assay and screening for NMU-2R agonists: The luciferase activity was measured according to the protocol from Promega. Briefly, 100 μL of HEK-293/NMU-2R/3MCS/Luci cells at 4×10^4 cells/mL were added into each well of white 96 -well plate (flat, clear bottom, Costar). The cells were maintained in DMEM containing 10% FBS (Gibco) and 1% non-essential amino acid, and incubated at 37° C., 5% CO2 overnight. […] Finally, 110 μL of luciferase substrate Bright GloTM (Promega) was added into each well. Luciferase activity was measured using […] (Molecular Device).

[4] = high fat diet induced obese rats, Rutin treatment
[5] = obese rats, oral 100 mg/kg for 4 weeks

In the case of `C[C@@H]1O[C@@H](OC[C@H]2O[C@@H](Oc3c(-c4ccc(O)c(O)c4)oc4cc(O)cc(O)c4c3=O)[C@H](O)[C@@H](O)[C@@H]2O)[C@H](O)[C@H](O)[C@H]1O` [Rutin], the glucose infusion rate [1] is reported as “significantly increase”, the “Fat Index” value ([2]; 30 mg/kg.d.) is reported as “decreased” and the “Fat Index” value ([2]; 100 mg/kg.d.) is reported as “decreased”. The bodyweight ([2]; oral 30 mg/kg.d.) was “significantly reduced”, the food intake ([2]; oral 30 mg/kg.d. for 30 days) was “no significant change” and the bodyweight ([2]; oral 100 mg/kg.d.) was “significantly reduced”. The food intake ([2]; oral 100 mg/kg.d., after 3 days) was “significant reduction”, the “blood HDL-C level” value [3, 4] was “remained the same as control animals” and the “blood TC level” value [3, 4] was “significantly reduced”. The “blood TG level” value [3, 4] was “significantly reduced”, the “blood LDL-C level” value ([3]; high fat diet induced obese rats, Rutin treatment, calculated by Friedewald formula) was “significantly reduced” and the bodyweight ([3]; high fat diets induced obese rats, oral or intraperitoneal (i.p.)) was “significantly reduced”. For the same molecule, the feeding ([3]; obese rats) was “significant inhibition”, the insulin sensitivity ([3]; obese rats) was “increase insulin sensitivity” and the “concentration of fatty acids in the blood” value ([3]; obese rats, Rutin treatment) was “reduced”. For the same molecule, the “fat ratio (fat to body weight)” value ([3]; obese rats, Rutin treatment) was “effectively decreased”, the blood-fasting glucose [3, 5] was “significantly reduced” and the fasting insulin level [3, 5] was “significantly reduced”. For the same molecule, the “activation of NMU-2R, expression of reporter gene luciferase” value (human NMU-2R) was “can activate”.
